Screen size: about 24,000 compounds; fewer than 10 were called active. Inconclusive means that the source gave no clear call. Such entries were picked first, then a sample of the others.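 Rule for the calls: active = fluorescent ligand binding to cells raised by more than 40% of the manganese-induced maximum; inconclusive = compound's own fluorescence above 85% of the ligand control signal; inactive = the rest.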
Target: Integrin alpha-4 (Homo sapiens) (UniProt P13612)
Experiment: enhancers of LDV-FITC binding to VLA-4 integrin, primary screen, Jurkat cells, flow cytometry (AID 528);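 for activation: 0% = ligand binding without compound and 100% = manganese-stimulated maximal binding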
Settings: hits give high values, concentration not given here

Sequences of proteins named here, by UniProt entry; tags and fusion partners are left off.
UniProt P13612, whole entry, looked up: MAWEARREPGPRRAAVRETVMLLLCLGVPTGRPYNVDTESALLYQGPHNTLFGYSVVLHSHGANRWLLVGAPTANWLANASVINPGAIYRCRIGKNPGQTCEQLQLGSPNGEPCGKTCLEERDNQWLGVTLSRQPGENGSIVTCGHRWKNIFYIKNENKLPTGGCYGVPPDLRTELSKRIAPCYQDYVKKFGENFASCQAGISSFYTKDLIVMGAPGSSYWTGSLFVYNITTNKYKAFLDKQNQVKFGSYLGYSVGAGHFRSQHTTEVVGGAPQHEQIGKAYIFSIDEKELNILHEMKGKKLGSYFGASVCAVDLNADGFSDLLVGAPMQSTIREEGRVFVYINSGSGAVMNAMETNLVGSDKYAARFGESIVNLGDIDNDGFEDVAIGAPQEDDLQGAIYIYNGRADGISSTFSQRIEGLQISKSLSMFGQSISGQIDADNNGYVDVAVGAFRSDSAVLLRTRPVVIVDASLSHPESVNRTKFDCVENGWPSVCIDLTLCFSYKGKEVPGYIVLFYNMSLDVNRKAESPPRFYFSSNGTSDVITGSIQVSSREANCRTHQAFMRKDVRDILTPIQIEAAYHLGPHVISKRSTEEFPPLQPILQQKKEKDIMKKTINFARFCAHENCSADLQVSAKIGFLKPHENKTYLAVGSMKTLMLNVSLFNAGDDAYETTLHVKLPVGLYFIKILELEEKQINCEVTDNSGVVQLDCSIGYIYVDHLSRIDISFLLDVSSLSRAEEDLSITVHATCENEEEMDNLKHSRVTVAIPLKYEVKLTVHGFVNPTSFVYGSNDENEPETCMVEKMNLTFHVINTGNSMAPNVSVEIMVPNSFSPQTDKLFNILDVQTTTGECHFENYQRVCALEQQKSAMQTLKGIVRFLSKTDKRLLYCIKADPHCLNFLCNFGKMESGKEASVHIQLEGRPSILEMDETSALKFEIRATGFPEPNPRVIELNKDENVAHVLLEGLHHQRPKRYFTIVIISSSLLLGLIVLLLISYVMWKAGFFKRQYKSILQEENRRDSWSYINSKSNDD

Structure (SMILES)	activation
CCCC(C)(COC(N)=O)COC(=O)NC(C)C (stereo not drawn)	inactive: -2.5%
Cc1c(C(=O)N2CCC3(CC2)OCCO3)sc2ncnc(N3CCN(c4ccccn4)CC3)c12	inactive: 1%
CC1CCCCN1CC(=O)c1ccc2cc[nH]c2c1 (stereo not drawn)	inconclusive
COc1cccc(C2=NOC(C(=O)N3CCC4(CC3)OCCO4)C2)c1 (stereo not drawn)	inactive: 1%
Cc1nc2cc(-c3ccccc3)nn2c(C)c1CCC(=O)N1CCC2(CC1)OCCO2	inconclusive
O=C(c1ccccc1)c1cn(CC(=O)N2CCCC2)c2ccccc12	inconclusive
Cc1cc(C)n2nc(SC(C)C(=O)N3CCC4(CC3)OCCO4)nc2n1 (stereo not drawn)	inactive: 7%
Nc1ccc(C2(c3ccc(N)cc3)CN3CCC2CC3)cc1	inconclusive
Cc1nc2c(-c3ccc(F)cc3)c(C)nn2c(C)c1CCC(=O)N1CCC2(CC1)OCCO2	inconclusive
O=C1C2CCCN2C(c2cccnc2)N1c1ccc(Cl)cc1 (stereo not drawn)	inconclusive
CC1CCC(C(=O)NC(C(=O)N2CCC3(CC2)OCCO3)C(C)C)CC1 (stereo not drawn)	inactive: 4.7%
COc1ccc(C2SCC(=O)Nc3c2c(=O)[nH]n3C2CCCCCC2)cc1OC (stereo not drawn)	inactive: 5.5%
CC(C)[C@H]1C(=O)N2CCC[C@H]2[C@]2(O)O[C@](NC(=O)[C@@H]3C=C4c5cccc6[nH]cc(c56)C[C@H]4N(C)C3)(C(C)C)C(=O)N12	inconclusive
CC1(C)CN=C(Nc2ccccc2C(F)(F)F)S1	inconclusive
O=c1c2ccccc2[se]n1-c1ccccc1	active: 40%
Cc1ccc(C2C(S(C)(=O)=O)=C(O)C(=O)N2c2ccccc2)cc1 (stereo not drawn) (tested in a mixture with another compound)	inactive: 1%
O=C(c1cc(-c2ccccc2)nc2ccccc12)N1CCC2(CC1)OCCO2	inconclusive
Cc1cc(C)c(C(=O)CN2CCOCC2)c(C)c1	inactive: 11.5%
O=C(c1cc2cc3ccc(Cl)cc3nc2o1)N1CCC2(CC1)OCCO2	inconclusive
CCn1nc(-c2ccccc2)nc2c(=O)n(C)c(=O)nc1-2	inconclusive
Cc1ccccc1-c1nc(CS(=O)CC(=O)N2CCC3(CC2)OCCO3)c(C)o1 (stereo not drawn)	inactive: -8%
Cc1cnn(C2CCN(C)CC2)c1N	inconclusive
O=P(O)(O)Cc1ccccc1OP(=O)(c1ccccc1)c1ccccc1	inconclusive
CCC1(CC)C(=O)NC(=NCCc2c[nH]c3ccccc23)NC1=O	inconclusive

Part of the list above, with bars between the fields:
Structure (SMILES) | activation
Cc1c(C(=O)N2CCC3(CC2)OCCO3)sc2ncnc(N3CCN(c4ccccn4)CC3)c12 | inactive: 1%
Cc1nc2cc(-c3ccccc3)nn2c(C)c1CCC(=O)N1CCC2(CC1)OCCO2 | inconclusive
O=C(c1ccccc1)c1cn(CC(=O)N2CCCC2)c2ccccc12 | inconclusive
Cc1nc2c(-c3ccc(F)cc3)c(C)nn2c(C)c1CCC(=O)N1CCC2(CC1)OCCO2 | inconclusive
CC(C)[C@H]1C(=O)N2CCC[C@H]2[C@]2(O)O[C@](NC(=O)[C@@H]3C=C4c5cccc6[nH]cc(c56)C[C@H]4N(C)C3)(C(C)C)C(=O)N12 | inconclusive
CC1(C)CN=C(Nc2ccccc2C(F)(F)F)S1 | inconclusive
Cc1cc(C)c(C(=O)CN2CCOCC2)c(C)c1 | inactive: 11.5%
O=C(c1cc2cc3ccc(Cl)cc3nc2o1)N1CCC2(CC1)OCCO2 | inconclusive
Cc1ccccc1-c1nc(CS(=O)CC(=O)N2CCC3(CC2)OCCO3)c(C)o1 (stereo not drawn) | inactive: -8%

Continuation.

Structure (SMILES)	activation
C1=C(c2c[nH]c3ccccc23)CCNC1	inconclusive
O=C(NCC(c1cccnc1)N1CCN(c2ccc(F)cc2)CC1)Oc1ccccc1 (stereo not drawn)	inactive: -6%
CCOC(=O)N(c1ccccc1)P1(=S)OCC(C)O1 (stereo not drawn)	inconclusive
CC(C)OCCCNC(=O)c1c(N)n(CC2CCCO2)c2nc3ccccc3nc12 (stereo not drawn)	inconclusive
Cc1ccc(Cl)cc1N1CCN(CCN)CC1	inconclusive
O=C(NCC(c1cccnc1)N1CCN(c2ccccc2F)CC1)Oc1ccccc1 (stereo not drawn)	inconclusive
O=C(CN1CC(c2ccccc2)CC1=O)Nc1ccc(F)cc1 (stereo not drawn)	inconclusive
Cc1c2ccncc2c(C)c2c1[nH]c1ccccc12	inconclusive
O=C(CN1CC(c2ccccc2)CC1=O)NCc1ccc(F)cc1 (stereo not drawn)	inconclusive
CC(N)Cc1c[nH]c2cc3c(cc12)OCCO3 (stereo not drawn)	inconclusive
O=C(C1CCCN(c2nnc(-n3cccc3)s2)C1)N1CCC2(CC1)OCCO2 (stereo not drawn)	inconclusive
COC(=O)c1cncn1C(C)c1ccccc1 (stereo not drawn)	inconclusive
O=C(NCc1ccc(C(=O)N2CCC3(CC2)OCCO3)cc1)c1ccc2c(c1)OCO2	inconclusive
O=c1c2ccccc2[nH]c(=S)n1-c1ccc2c(c1)OCO2	inconclusive
O=C(c1cc(-c2ccncc2)nc2ccccc12)N1CCC2(CC1)OCCO2	inconclusive
Cn1ncnc2c(=O)n(C)c(=O)nc1-2	inconclusive
CCOc1ccc(C2SCC(=O)Nc3c2c(=O)[nH]n3C2CCCCCC2)cc1 (stereo not drawn)	inactive: 6%
Cc1[nH]c2ccccc2c1C1=CCNCC1	inconclusive
CCOc1cc2[nH]c(=S)n(CCCC(=O)N3CCC4(CC3)OCCO4)c(=O)c2cc1OCC	inconclusive
O=c1c2ccccc2nc(N2CCCC2)n1-c1ccc(Cl)cc1	inactive: -6%
CCOC(=O)c1cc2c(cn1)[nH]c1ccccc12	inactive: 0%
Cc1nn(-c2ccccc2)c2c1CC1(C(=O)N(C)C(=O)N(C)C1=O)C1CCCCN21 (stereo not drawn)	inconclusive
O=C(CN1CC(c2ccccc2)CC1=O)Nc1ccccc1 (stereo not drawn)	inactive: -4%
Cc1ccc2c(c1)C1CN(C)CCC1N2C(=O)Cn1nnc(-c2ccccc2F)n1 (stereo not drawn)	inconclusive

Source: PubChem BioAssay AID528 (NMMLSC, 2006)
